Reference: patent US20160046678A1 (ZYNGENIA, published 2016)
These are yes or no findings as the source states them, for the method shown. Some entries that bind do so weakly or less than the wild type.

biological target: ErbB2 (UniProt P04626); experiment: MRD identification, Example 48

binding, binds:
HRAPCFSCTACRQPCFSLT [EGB781]
KWTRCIPRMETHTCDCLL [EGB740]
KLPQCLWEWDNRDCRWLL [EGB746]
KWWKCGVIFEICQIVP [EGB732]
WSGYCETGRGWHMCQGTI [EGB659]
WSGWCETDEGWRQCSGTI [EGB661]
WSGWCETKFGWSYCKGTI [EGB666]
HRSKCFMMYWDENCLQPW [EGB692]
AQLKCFEKLYMCRHHL [EGB738]
KPWKCFYSYKIQHWKCHGVS [EGB763]
PNRYCYTYPHSVKCAWMY [EGB722]
LHRFCDHFAIQCRFCN [EGB748]
SAWYCTKHMPQSKYHCISMR [EGB730]
STDLCWPHKKHWHCPPAN [EGB729]
WSGWCETVTGWDYCNGKI [EGB660]
WSGWCMTLDKWHQCYGTI [EGB662]
LGGRCMLFALKQCSMGH [EGB693]
ADSWCHTLFWQLQHCVWQE [EGB712]
WSGYCELKDRWAYCSGSI [EGB780]
PRYKCVFNWEVQKWQCSVWS [EGB716]
KWRCCYGQFQQACNAVS [EGB771]
WTHACVVWNMKQMEACTSLT [EGB778]
THMHCYQHKHHYHCRTSL [EGB675]
WSGWCEGEDGWHSCRGTI [EGB668]
VDRVCQFFMQKCWSSP [EGB739]
FKPHCVYKHQTWVCGPPA [EGB673]
WSGWCETSKGWHFCSGII [EGB669]
DPSRCSKAYQMLYQCRTLI [EGB723]
TDSWCHTLYWQLHHCAILE [EGB770]
WSGWCETNNGWYACWGMI [EGB663]
TWFRCTPHKHHYHCKHNV [EGB698]
TWSKCFMVPLGDYCTRAL [EGB707]
WSGWCFNEAGWGHCYGLP [EGB664]
RTWFCEKMHGQKFHCVSWF [EGB710]
GIWICRHDSPYMKPHCIFTS [EGB705]
WSGWCETDRGWHECHGTI [EGB665]
WSRLCTMRLPSTCGVWE [EGB696]
RSWHCSHQMGSKPHCVLSP [EGB697]
SVWKCVKHPFKIKPLCKLES [EGB708]
PKYSCVYSIMKEKWHCRAQT [EGB670]
KWRCCYGQFQPACNAVS [EGB714]
WSGYCEMKGYWAHCTGLI [EGB785]
LLNQCLQWAFHNCGCWN [EGB779]
WSGYCEFLDHWDHCSGGE [EGB786]
LICKQHKNHWHCRNYY [EGB758]
GPELCHHMAGHEWCLRYY [EGB686]
